Six molecules from PMC12772958 can be followed below.

Protein sequences, listed by entry. Tags and fused reporters are not part of them. Residues count along the entry.
UniProt Q96B97: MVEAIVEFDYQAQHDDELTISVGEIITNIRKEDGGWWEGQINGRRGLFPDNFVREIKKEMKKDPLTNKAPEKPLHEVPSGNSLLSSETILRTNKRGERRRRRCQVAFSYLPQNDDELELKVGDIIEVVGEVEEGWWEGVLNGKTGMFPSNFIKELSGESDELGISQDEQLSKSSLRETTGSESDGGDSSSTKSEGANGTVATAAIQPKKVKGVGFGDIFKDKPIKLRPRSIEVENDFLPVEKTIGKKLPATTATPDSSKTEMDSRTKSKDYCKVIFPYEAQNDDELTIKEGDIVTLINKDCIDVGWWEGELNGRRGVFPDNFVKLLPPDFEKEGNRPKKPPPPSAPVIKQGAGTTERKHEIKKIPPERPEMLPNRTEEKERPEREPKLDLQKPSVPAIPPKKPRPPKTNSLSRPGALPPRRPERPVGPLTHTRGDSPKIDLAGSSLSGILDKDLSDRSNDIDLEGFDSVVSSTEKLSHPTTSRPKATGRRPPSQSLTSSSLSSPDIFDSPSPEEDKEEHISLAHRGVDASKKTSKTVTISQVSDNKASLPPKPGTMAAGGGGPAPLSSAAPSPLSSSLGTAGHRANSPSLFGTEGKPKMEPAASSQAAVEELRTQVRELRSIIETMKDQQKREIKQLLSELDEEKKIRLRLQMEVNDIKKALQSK
UniProt Q9ULH1, residues 589-1129: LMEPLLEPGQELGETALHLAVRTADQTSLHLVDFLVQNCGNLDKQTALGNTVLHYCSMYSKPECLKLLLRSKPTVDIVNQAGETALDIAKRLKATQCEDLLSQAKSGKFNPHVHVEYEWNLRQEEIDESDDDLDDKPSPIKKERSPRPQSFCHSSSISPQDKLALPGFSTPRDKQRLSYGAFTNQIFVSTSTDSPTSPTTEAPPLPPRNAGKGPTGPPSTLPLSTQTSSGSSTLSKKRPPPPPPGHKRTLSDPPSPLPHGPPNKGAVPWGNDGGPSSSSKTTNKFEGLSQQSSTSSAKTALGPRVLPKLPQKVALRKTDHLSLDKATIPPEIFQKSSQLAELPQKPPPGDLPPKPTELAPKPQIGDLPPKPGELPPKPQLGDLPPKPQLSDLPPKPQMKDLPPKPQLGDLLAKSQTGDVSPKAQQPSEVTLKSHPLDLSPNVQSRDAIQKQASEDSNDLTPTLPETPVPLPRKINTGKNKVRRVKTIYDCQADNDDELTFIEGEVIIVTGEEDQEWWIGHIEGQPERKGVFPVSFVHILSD

Test [1] has as its target T1, GFP–MYO1F (human) (UniProt O00160).
T1 sequence: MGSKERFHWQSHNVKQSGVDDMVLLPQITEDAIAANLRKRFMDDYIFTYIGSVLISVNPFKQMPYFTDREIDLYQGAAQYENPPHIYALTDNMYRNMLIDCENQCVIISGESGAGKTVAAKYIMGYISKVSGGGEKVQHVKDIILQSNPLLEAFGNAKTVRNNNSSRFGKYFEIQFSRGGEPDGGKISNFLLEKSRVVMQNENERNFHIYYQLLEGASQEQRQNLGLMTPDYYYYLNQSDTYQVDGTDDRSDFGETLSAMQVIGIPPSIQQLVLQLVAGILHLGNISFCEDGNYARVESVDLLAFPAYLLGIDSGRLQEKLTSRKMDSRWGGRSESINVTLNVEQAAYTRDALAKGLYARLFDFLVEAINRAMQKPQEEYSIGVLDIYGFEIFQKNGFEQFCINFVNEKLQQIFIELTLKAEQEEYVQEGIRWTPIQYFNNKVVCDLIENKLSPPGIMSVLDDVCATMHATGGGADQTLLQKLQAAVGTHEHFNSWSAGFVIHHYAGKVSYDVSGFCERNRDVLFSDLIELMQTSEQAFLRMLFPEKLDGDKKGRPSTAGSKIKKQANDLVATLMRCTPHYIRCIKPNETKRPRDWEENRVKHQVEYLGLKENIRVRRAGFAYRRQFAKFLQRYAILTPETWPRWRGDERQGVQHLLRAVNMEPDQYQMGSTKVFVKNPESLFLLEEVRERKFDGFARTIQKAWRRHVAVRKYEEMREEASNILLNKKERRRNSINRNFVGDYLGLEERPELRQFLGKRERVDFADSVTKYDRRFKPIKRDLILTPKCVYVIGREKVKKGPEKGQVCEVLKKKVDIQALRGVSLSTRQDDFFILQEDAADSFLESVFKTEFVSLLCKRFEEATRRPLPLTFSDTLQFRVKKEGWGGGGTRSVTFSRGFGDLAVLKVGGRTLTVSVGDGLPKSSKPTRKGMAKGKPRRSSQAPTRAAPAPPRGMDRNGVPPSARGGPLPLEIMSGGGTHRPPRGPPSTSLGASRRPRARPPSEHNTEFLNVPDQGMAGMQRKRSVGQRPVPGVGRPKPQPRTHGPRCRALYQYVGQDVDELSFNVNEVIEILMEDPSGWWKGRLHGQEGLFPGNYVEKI
Description: co-IP; anti-GFP antibodies and protein A Sepharose from RPE cells stably expressing GFP–MYO1F or GFP–MYO1FΔSH3 and transiently transfected with Myc-tagged partners; blot with anti-Myc; lysis in 50 mM Tris-HCl pH 7.4, 100 mM NaCl, 1% NP-40, 5 mM MgCl2, 5 mM ATP; also after siRNA knockdown of SH3KBP1 or ASAP1.

The target of test [2] is T1, GFP–MYO1F (human). Nature of the test: co-IP; GFP-specific nanobodies from RPE cells stably expressing GFP–MYO1F and transiently expressing Myc-tagged SH3BP2 or ASAP1 constructs; blot with anti-Myc and anti-GFP.
The next test deals with T2, GFP–MYO1F tail (human) (UniProt O00160).
T2 sequence: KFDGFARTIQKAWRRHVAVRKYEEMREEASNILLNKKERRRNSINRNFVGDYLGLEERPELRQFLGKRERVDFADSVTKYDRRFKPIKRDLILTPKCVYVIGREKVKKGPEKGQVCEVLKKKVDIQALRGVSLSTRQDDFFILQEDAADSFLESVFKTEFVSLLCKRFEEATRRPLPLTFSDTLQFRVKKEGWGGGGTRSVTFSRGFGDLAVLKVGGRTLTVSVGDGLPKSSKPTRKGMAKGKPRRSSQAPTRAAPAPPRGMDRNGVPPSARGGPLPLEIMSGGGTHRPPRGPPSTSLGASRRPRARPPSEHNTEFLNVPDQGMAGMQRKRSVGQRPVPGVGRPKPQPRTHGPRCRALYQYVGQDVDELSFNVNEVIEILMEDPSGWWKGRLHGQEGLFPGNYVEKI
Description: co-IP; anti-GFP antibodies from RPE cells transiently expressing GFP–MYO1F tail or its C-terminal deletions; blot with antibodies to endogenous ASAP1 or SH3KBP1.

Test [3] has as its target T1, GFP–MYO1F (human). Description: co-IP; GFP-specific nanobodies from RPE cells stably expressing GFP–MYO1F and transiently expressing Myc-tagged SH3BP2 or ASAP1 constructs; blot with anti-Myc and anti-GFP. This is another data set of the same source.

Residue numbers refer to the chain shown, from its start. Names and notes keep the numbering of the source. No constants are given. Whether binding was seen depends on the method and setting. Binding seen in cells or lysates may run through a third protein. Some results given as binding are weak or reduced against the parent protein; the word gives no strength. Tags and fused reporters may be left off the sequences shown.

Myc–SH3KBP1 (from UniProt Q96B97 1-665): the binding entry in the test with GFP–MYO1F (human) [1] is “binds”.

With “Myc–ASAP1-3′ (amino acids 589–1129) (from UniProt Q9ULH1 589-1129) (domain or fragment)”, the binding result with GFP–MYO1F (human) [2] and in the test with GFP–MYO1F (human) [1] was “binds” in each case.

As for “endogenous SH3KBP1 (from UniProt Q96B97 1-665)”, the binding result with GFP–MYO1F tail (human) is “binds”.

B1: Myc–SH3BP2 (protein, UniProt P78314 1-561)
chain: MAAEEMHWPVPMKAIGAQNLLTMPGGVAKAGYLHKKGGTQLQLLKWPLRFVIIHKRCVYYFKSSTSASPQGAFSLSGYNRVMRAAEETTSNNVFPFKIIHISKKHRTWFFSASSEEERKSWMALLRREIGHFHEKKDLPLDTSDSSSDTDSFYGAVERPVDISLSPYPTDNEDYEHDDEDDSYLEPDSPEPGRLEDALMHPPAYPPPPVPTPRKPAFSDMPRAHSFTSKGPGPLLPPPPPKHGLPDVGLAAEDSKRDPLCPRRAEPCPRVPATPRRMSDPPLSTMPTAPGLRKPPCFRESASPSPEPWTPGHGACSTSSAAIMATATSRNCDKLKSFHLSPRGPPTSEPPPVPANKPKFLKIAEEDPPREAAMPGLFVPPVAPRPPALKLPVPEAMARPAVLPRPEKPQLPHLQRSPPDGQSFRSFSFEKPRQPSQADTGGDDSDEDYEKVPLPNSVFVNTTESCEVERLFKATSPRGEPQDGLYCIRNSSTKSGKVLVVWDETSNKVRNYRIFEKDSKFYLEGEVLFVSVGSMVEHYHTHVLPSHQSLLLRHPYGYTGPR
Turning to B1, the binding entry with GFP–MYO1F (human) [3] and in the test with GFP–MYO1F (human) [1] was “binds” each time.

B2: Myc-tagged SH3BP2 K356A (protein, UniProt P78314 1-561)
chain: B1 chain with K356A
As for B2, the binding entry with GFP–MYO1F (human) [3] is recorded as “binds”.

B3: Myc-tagged SH3BP2 ΔPPVPANK (protein, UniProt P78314)
chain: MAAEEMHWPVPMKAIGAQNLLTMPGGVAKAGYLHKKGGTQLQLLKWPLRFVIIHKRCVYYFKSSTSASPQGAFSLSGYNRVMRAAEETTSNNVFPFKIIHISKKHRTWFFSASSEEERKSWMALLRREIGHFHEKKDLPLDTSDSSSDTDSFYGAVERPVDISLSPYPTDNEDYEHDDEDDSYLEPDSPEPGRLEDALMHPPAYPPPPVPTPRKPAFSDMPRAHSFTSKGPGPLLPPPPPKHGLPDVGLAAEDSKRDPLCPRRAEPCPRVPATPRRMSDPPLSTMPTAPGLRKPPCFRESASPSPEPWTPGHGACSTSSAAIMATATSRNCDKLKSFHLSPRGPPTSEPPKFLKIAEEDPPREAAMPGLFVPPVAPRPPALKLPVPEAMARPAVLPRPEKPQLPHLQRSPPDGQSFRSFSFEKPRQPSQADTGGDDSDEDYEKVPLPNSVFVNTTESCEVERLFKATSPRGEPQDGLYCIRNSSTKSGKVLVVWDETSNKVRNYRIFEKDSKFYLEGEVLFVSVGSMVEHYHTHVLPSHQSLLLRHPYGYTGPR
For B3, in the test with GFP–MYO1F (human) [3], the binding entry is “binds”.
